Some of the results follow. Shown are side measurements of this screen, not its main read-out; they come without a call. The list favours compounds with an active or inconclusive main result. The note in brackets gives the kind of curve behind each potency; many fits are weak.

The term AC50 denotes the concentration giving half of the maximal activity seen.

This assay is described as follows: qHTS Assay to Find Inhibitors of Chronic Active B-Cell Receptor Signaling. Particulars: ABC-DLBCL IkBa-CBG/CBR reporter, luminescence ratio (green luciferase fused to IkBa over red control in TMD8 lymphoma cells), 4 h. In short, it runs like this:
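TMD8 ABC-DLBCL cells carrying doxycycline-inducible green luciferase fused to IkappaBalpha plus unfused red luciferase were exposed to compounds (up to 46 uM) for 4 hrs at 37C. Activity came from the overlap-corrected green/red luminescence ratio.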
On the technique in general: Quantitative high-throughput screening tests each substance at several concentrations.

[1] abbreviates: measured here: CBR red luminescence, cell number.
[2] abbreviates: measured here: IkBa-CBG green luminescence.

Turning to `CC(OC(=O)c1cccc(S(=O)(=O)N2CCN(C)CC2)c1)C(=O)Nc1ccc(C(N)=O)cc1` (stereo not drawn), under setting [1], the AC50 was 29.1 µM [rising, partial curve, poor fit]. In the case of `COc1ccc(Cn2c(C)c(C)c(C#N)c2NC(=O)Nc2ccc(Cl)cc2)cc1`, the AC50 by setting is: under setting [1], 35.5 µM [falling, single point]; under setting [2], 35.5 µM [rising, partial curve, poor fit]. As to `COc1cccc(Cn2cc(-c3cccc(C(F)(F)F)c3)nn2)c1`, the half-maximal activity concentration (AC50) under setting [1] was 3.98 µM [rising, single point]. `COc1ccc(CN2CCC(C(=O)N(C)CCc3ccc(OC)c(OC)c3)CC2)c(OC)c1`: the AC50 under setting [1] was 2.31 µM [falling, partial curve, poor fit]. Take `O=C(NN=C1CCCCCC1)c1c[nH]c2ccccc12`: the AC50 under setting [1] was 9.2 µM [falling, partial curve, poor fit]. `COc1cnc(SCc2ccc(Cl)cc2)nc1Cl`: under setting [1], the AC50 is 4.47 µM [rising, partial curve, poor fit]. `O=C(Nc1ccccc1-c1ccccc1)c1cccc([N+](=O)[O-])c1`: the AC50 under setting [1] is 0.794 µM [rising, full curve, poor fit]. Still for that read-out and setting: for `O=C(N/N=C/c1cccc(Oc2ccccc2)c1)c1ccccc1Br` the value was 25.1 µM [falling, partial curve, poor fit]; for `O=C(c1ccccc1NS(=O)(=O)c1ccccc1[N+](=O)[O-])N1CCOCC1`, 2.91 µM [rising, single point]; for `O=C(NCC(O)c1ccccc1)c1ccc(Cl)c(S(=O)(=O)N2CCCC2)c1` (stereo not drawn), 13 µM [falling, partial curve].

With `Cc1sc(NC(=O)c2ccccc2)c(C(=O)N2CCN(C)CC2)c1C`, the AC50 under setting [1] is 9.2 µM [rising, partial curve].

Consider `C/C(=N\NC(=O)c1ccccc1)c1nc2ccccc2n1C`, for which the AC50 under setting [1] is 13 µM [falling, partial curve, poor fit]. Regarding `COc1ccc(-c2csc(-n3ncc(-c4cccs4)c3N)n2)cc1`, under setting [1], the AC50 was 8.91 µM [rising, single point]. The same measure, in the same setting: with `COc1ccc(-c2onc3ccc(Br)cc23)cc1` the figure was 20.6 µM [rising, partial curve, poor fit]; with `O=C(N/N=C/c1ccoc1)c1ccc(Cl)cc1`, 8.91 µM [falling, partial curve, poor fit]. In the case of `CCOC(=O)c1sc(Nc2nc(OC)cc(OC)n2)nc1C`, under setting [1], the AC50 was 3.98 µM [falling, full curve, poor fit].

Consider `Cc1csc(N/N=C/c2ccc([N+](=O)[O-])cc2)n1`, for which the AC50 under setting [1] is 1.26 µM [rising, full curve, poor fit]. The same measure, in the same setting: with `Cc1ccc(C(=O)Nc2nccs2)cc1S(=O)(=O)N1CCCCC1` the figure was 6.31 µM [falling, full curve]; with `CCOc1ccc(C(=O)/C=C/c2ccc(OC)c(OC)c2)cc1`, 22.4 µM [falling, single point]; with `COc1ccc(/C=N/Nc2snc(SC)c2C#N)cc1OC`, 5.62 µM [falling, partial curve, poor fit]. In the case of `O=C(c1cnn(-c2ccccc2)c1)c1ccc2ccccc2c1O`, under setting [1], the AC50 was 1.41 µM [falling, full curve, poor fit]. With `COc1ccc(C(C)=O)c(OC(=O)c2ccco2)c1`, the concentration at half-maximal activity (AC50) under setting [1] is 2.82 µM [rising, single point]. Same read-out and setting: for `N#Cc1ccc(C(=O)Nc2cccc(NC(=O)c3ccco3)c2)c(F)c1` the value was 7.08 µM [falling, partial curve]. The same measure, in the same setting: with `C/C(=N\NC(=O)Cc1ccc(F)cc1)c1ccc(F)cc1` the figure was 4.61 µM [rising, full curve, poor fit]. The same measure, in the same setting: for `CCCCNC(=O)N1CCN(c2ccnc3cc(Cl)ccc23)CC1` the value was 25.1 µM [falling, single point]; for `COc1ccccc1C(=O)CSc1nccn1C`, 14.1 µM [falling, single point].

Consider `CN1CCN(C(=O)CCN2C(=O)/C(=C\c3ccc(F)cc3)SC2=S)CC1`, for which, under setting [1], the concentration at half-maximal activity (AC50) is 23.1 µM [falling, single point]. Turning to `CCc1cc(SC#N)cc(C)c1N`, the AC50 runs as follows: under setting [1], 3.55 µM [falling, single point]; under setting [2], 20 µM [falling, partial curve, poor fit]. For the molecule `O=C(COC(=O)c1ccccc1C(=O)N1CCN(c2ccccc2)CC1)Nc1ccc(F)cc1`, the concentration at half-maximal activity (AC50) under setting [1] is 0.058 µM [falling, full curve, poor fit]. For `CC(C)Oc1cccc(C(=O)NC(=S)Nc2ccccc2)c1`, under setting [1], the half-maximal activity concentration (AC50) was 1.64 µM [rising, full curve, poor fit]. For `Cc1nc2ccccc2c2oc(C(=O)NCCCN3CCC(C)CC3)cc12`, under setting [1], the concentration at half-maximal activity (AC50) was 14.1 µM [falling, single point].

With `COc1cc(C(=O)NC(=S)N(C)Cc2ccccc2)cc(OC)c1OC`, the concentration at half-maximal activity (AC50) under setting [2] is 12.6 µM [falling, partial curve, poor fit]. For `O=S(=O)(NC1CCCCC1N1CCN(c2ccccc2F)CC1)c1ccc(Cl)cc1` (stereo not drawn), the concentration at half-maximal activity (AC50) under setting [1] is 5.62 µM [rising, single point]. The same measure, in the same setting: for `O=C(c1cc(F)ccc1F)C1CCCN(C(=O)c2ccc(F)cc2Cl)C1` (stereo not drawn) the value was 0.708 µM [rising, full curve, poor fit]. On the same count and under the same terms, for `CC(=O)N/C(N)=N/c1nc2cc(C)ccc2o1` the value was 0.891 µM [rising, full curve, poor fit]; for `O=C(c1ccco1)N1CCN(c2ncnc3c2cnn3-c2ccccc2)CC1`, 18.4 µM [falling, single point]; for `Cc1nc2sc(C(=O)c3ccccc3)c(N)c2c2c1CCCC2`, 32.6 µM [falling, single point]. As for `CNS(=O)(=O)c1cccc(C(=O)OCC(=O)N2c3ccccc3NC(=O)C2(C)C)c1`, the half-maximal activity concentration (AC50) under setting [1] is 23.1 µM [rising, single point]. The same measure, in the same setting: for `[2H]C([2H])(CCOS(N)(=O)=O)c1ccccc1` the value was 2.24 µM [rising, full curve, poor fit].

For the molecule `NC(=O)c1ccccc1NC(=S)NC(=O)c1ccc(Br)o1`, the AC50 under setting [1] is 23.1 µM [falling, single point].

As to `Cc1ccc2nc(SCC(=O)Nc3cccc(Cl)c3)nc(=O)n2c1`, the AC50 under setting [1] is 29.1 µM [falling, single point].

For the origin of these results see PubChem BioAssay AID493014 (National Center for Advancing Translational Sciences (NCATS), 2011).
